Test: general procedure: peptide synthesis; polystyrene resin with chlorotrityl linker groups (e.g. 2-chlorotrityl chloride); ChemMatrix trityl-alcohol; PyBOP/DIEA

Substance	step yield (coupling step)	step yield (late stage modification step)
Ac-GFGQGFGG-CHHLEPGG-CILKEPVHGA-NH2	36%	
Ac-GFGQGFGG-SeEA		24%
Ac-GFGQGFGGCILKEPVHGA-NH2	54%	
H-ILKEPVHGA-SeEA		62%
H-IRNCIIGKGRSYKGTVSITKSGIK-SeEA		38%

From patent US20150045506 (published 2015)
